Read-outs that look alike come from different tables or passages of the source. Results are given in words; binding and its absence hold for the method and conditions named. Binding seen in cells or lysates may run through a third protein. These calls come from enrichment with a bait or labelling near it, and not all partners need be listed. Each block holds one molecule with its values, some of them ahead of it.
Legend:
[1] = molecular target: SNRPC subunit of the U1 snRNP (human (endogenous in HeLa)) (UniProt P09234); experiment: affinity purification with mass spectrometry; IP of the U1 snRNP machinery from HeLa nuclear extract, TCA precipitated, peptides labelled by tandem mass tag, MS3 on an Orbitrap Fusion
[2] = molecular target: EWSR1 (human (endogenous in HeLa)) (UniProt Q01844); experiment: affinity purification with mass spectrometry; IPs from HeLa cell nuclear extract with antibodies to FUS, EWSR1, TAF15 or MATR3 cross-linked to Protein A Sepharose; Coomassie-stained gel, individual bands excised and identified by mass spectrometry
[3] = molecular target: FUS (human (endogenous in HeLa)) (UniProt P35637); experiment: as above
[4] = molecular target: TAF15 (human (endogenous in HeLa)) (UniProt Q92804); experiment: as above
[5] = molecular target: EWSR1 (human (endogenous in HeLa)) (UniProt Q01844); experiment: affinity purification with mass spectrometry; IPs of FUS, EWSR1, TAF15 or MATR3 from HeLa nuclear extract, TCA precipitated, shotgun mass spectrometry
[6] = molecular target: FUS (human (endogenous in HeLa)) (UniProt P35637); experiment: as above
[7] = molecular target: TAF15 (human (endogenous in HeLa)) (UniProt Q92804); experiment: as above
[8] = molecular target: SNRPC subunit of the U1 snRNP (human (endogenous in HeLa)) (UniProt P09234); experiment: affinity purification with mass spectrometry; IP of the U1 snRNP machinery from HeLa nuclear extract, TCA precipitated, peptides labelled by tandem mass tag, MS3 on an Orbitrap Fusion; remark: listed apart in the source

Protein sequences, listed by entry. Tags and fused reporters are not part of them.
UniProt Q01844: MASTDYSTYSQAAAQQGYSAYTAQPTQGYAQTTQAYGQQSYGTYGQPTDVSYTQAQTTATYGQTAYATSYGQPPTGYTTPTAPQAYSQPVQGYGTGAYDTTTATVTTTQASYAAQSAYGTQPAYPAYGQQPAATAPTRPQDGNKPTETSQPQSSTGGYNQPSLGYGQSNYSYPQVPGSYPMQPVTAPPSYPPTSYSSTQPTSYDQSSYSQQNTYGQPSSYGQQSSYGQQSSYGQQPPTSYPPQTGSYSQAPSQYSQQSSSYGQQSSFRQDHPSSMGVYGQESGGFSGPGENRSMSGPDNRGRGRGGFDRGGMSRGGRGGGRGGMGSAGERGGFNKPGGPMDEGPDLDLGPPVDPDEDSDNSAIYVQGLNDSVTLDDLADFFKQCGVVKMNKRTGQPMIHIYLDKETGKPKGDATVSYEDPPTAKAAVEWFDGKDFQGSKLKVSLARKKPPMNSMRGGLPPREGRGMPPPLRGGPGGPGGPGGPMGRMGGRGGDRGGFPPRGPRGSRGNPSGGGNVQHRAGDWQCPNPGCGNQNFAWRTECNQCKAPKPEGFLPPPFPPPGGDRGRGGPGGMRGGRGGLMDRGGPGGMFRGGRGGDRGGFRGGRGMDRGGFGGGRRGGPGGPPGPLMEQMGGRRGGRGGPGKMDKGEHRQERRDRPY
UniProt P35637: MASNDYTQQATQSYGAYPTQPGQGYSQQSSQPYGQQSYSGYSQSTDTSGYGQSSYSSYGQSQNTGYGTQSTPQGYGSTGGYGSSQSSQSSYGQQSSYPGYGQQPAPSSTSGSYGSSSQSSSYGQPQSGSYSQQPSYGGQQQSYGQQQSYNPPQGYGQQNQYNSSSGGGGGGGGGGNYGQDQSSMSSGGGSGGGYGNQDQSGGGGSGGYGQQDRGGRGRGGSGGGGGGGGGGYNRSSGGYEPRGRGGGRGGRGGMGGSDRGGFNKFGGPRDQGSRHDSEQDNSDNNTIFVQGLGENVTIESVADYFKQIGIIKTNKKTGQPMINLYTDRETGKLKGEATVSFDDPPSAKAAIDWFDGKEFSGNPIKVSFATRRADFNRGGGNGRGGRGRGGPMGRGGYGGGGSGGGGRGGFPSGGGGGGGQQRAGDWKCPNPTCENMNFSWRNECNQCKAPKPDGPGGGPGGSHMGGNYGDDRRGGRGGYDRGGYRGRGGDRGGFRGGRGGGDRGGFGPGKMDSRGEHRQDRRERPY
UniProt Q92804: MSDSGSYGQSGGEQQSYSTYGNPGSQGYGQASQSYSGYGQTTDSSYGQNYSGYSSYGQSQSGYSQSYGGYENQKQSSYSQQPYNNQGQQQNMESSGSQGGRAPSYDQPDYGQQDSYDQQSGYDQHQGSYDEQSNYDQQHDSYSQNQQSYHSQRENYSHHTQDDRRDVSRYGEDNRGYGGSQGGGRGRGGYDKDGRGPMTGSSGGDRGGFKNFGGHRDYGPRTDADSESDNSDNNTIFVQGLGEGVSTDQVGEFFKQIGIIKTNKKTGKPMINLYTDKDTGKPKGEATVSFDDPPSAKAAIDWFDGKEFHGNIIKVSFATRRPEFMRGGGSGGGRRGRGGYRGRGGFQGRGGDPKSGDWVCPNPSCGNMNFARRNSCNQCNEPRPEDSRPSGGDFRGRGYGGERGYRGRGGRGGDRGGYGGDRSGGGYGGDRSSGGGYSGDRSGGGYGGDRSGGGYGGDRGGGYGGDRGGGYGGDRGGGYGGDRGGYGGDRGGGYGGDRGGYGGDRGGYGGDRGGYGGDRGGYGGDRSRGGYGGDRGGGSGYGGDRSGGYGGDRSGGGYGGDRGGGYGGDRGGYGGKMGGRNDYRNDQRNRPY
UniProt P08621: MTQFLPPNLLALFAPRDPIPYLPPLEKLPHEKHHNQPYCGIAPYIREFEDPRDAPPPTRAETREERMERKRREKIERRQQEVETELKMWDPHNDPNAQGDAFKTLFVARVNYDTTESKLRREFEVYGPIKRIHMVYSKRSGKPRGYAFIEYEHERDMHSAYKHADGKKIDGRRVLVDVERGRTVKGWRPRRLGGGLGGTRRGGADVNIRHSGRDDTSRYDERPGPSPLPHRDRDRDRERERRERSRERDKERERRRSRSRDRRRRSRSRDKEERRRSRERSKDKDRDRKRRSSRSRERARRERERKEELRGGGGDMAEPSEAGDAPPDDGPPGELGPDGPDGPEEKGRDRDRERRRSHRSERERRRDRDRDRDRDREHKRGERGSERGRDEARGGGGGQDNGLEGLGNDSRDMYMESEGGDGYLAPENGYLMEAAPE
UniProt P09012: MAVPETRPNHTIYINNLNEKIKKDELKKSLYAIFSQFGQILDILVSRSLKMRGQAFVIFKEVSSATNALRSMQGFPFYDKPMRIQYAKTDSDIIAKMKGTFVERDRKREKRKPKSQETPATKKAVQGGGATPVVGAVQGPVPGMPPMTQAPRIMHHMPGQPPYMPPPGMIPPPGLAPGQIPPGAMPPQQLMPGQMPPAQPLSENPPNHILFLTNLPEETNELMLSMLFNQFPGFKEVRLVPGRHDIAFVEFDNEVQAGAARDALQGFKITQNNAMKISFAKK

binding [1]: binds | binding [2]: binds | binding [3]: binds | binding [4]: binds
Molecule: SNRNP70 (from UniProt P08621 1-437)

binding [1]: binds | binding [2]: binds | binding [3]: binds | binding [4]: binds
Molecule: SNRPA (from UniProt P09012 1-282)

binding [2]: binds | binding [3]: binds | binding [4]: binds
Molecule: SNRPC subunit of the U1 snRNP (from UniProt P09234 1-159)

binding [5]: binds | binding [6]: binds | binding [7]: binds | binding [8]: binds
B1: MATR3 (protein, UniProt P43243 1-847)
chain: MSKSFQQSSLSRDSQGHGRDLSAAGIGLLAAATQSLSMPASLGRMNQGTARLASLMNLGMSSSLNQQGAHSALSSASTSSHNLQSIFNIGSRGPLPLSSQHRGDADQASNILASFGLSARDLDELSRYPEDKITPENLPQILLQLKRRRTEEGPTLSYGRDGRSATREPPYRVPRDDWEEKRHFRRDSFDDRGPSLNPVLDYDHGSRSQESGYYDRMDYEDDRLRDGERCRDDSFFGETSHNYHKFDSEYERMGRGPGPLQERSLFEKKRGAPPSSNIEDFHGLLPKGYPHLCSICDLPVHSNKEWSQHINGASHSRRCQLLLEIYPEWNPDNDTGHTMGDPFMLQQSTNPAPGILGPPPPSFHLGGPAVGPRGNLGAGNGNLQGPRHMQKGRVETSRVVHIMDFQRGKNLRYQLLQLVEPFGVISNHLILNKINEAFIEMATTEDAQAAVDYYTTTPALVFGKPVRVHLSQKYKRIKKPEGKPDQKFDQKQELGRVIHLSNLPHSGYSDSAVLKLAEPYGKIKNYILMRMKSQAFIEMETREDAMAMVDHCLKKALWFQGRCVKVDLSEKYKKLVLRIPNRGIDLLKKDKSRKRSYSPDGKESPSDKKSKTDGSQKTESSTEGKEQEEKSGEDGEKDTKDDQTEQEPNMLLESEDELLVDEEEAAALLESGSSVGDETDLANLGDVASDGKKEPSDKAVKKDGSASAAAKKKLKKVDKIEELDQENEAALENGIKNEENTEPGAESSENADDPNKDTSENADGQSDENKDDYTIPDEYRIGPYQPNVPVGIDYVIPKTGFYCKLCSLFYTNEEVAKNTHCSSLPHYQKLKKFLNKLAEERRQKKET
